# PubChem BioAssay AID504444 (National Center for Advancing Translational Sciences (NCATS), 2011)
# In all, about 360,000 compounds went through this assay and about 7,500 (2.1%) were called active. This list was built around the results that the source calls inconclusive (neither active nor inactive); the mix of calls is not that of the screen. The call rests on the fitted dose curve; in most records, active means well fitted inhibition curve with a large enough effect; inconclusive means small, poorly fitted or top-dose-only effect, or effect the other way; inactive means flat fitted curve, though single readings scatter. Where the call is inconclusive, the potency comes from a doubtful curve fit.
# Experiment: Nrf2 qHTS screen for inhibitors; further: nearly all actives have a fitted effect of over 60% in size
# Conditions: A549 ARE-Fluc reporter, luciferase luminescence, 18-24 h; series mostly up to 46 µM
# In short: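 In this cell-based qHTS, ARE-driven firefly luciferase in A549 cells reports Nrf2 activity; the luminescent signal after BugLite lysis is the measured value, with a prior CellTiter-Fluor read for cell health.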
# Potency means the concentration at half of the fitted maximal effect.
row,SMILES,Potency
1,O=C(NCCc1ccccc1Cl)C1CCN(c2nc3ccccc3nc2C(F)(F)F)CC1,"inconclusive: 29.1 µM [activator, single point]"
2,CCOc1ccc(/C=C/c2nc(C#N)c(NCc3ccccc3)o2)cc1,inactive
3,O=C(c1cccc(C(=O)N2CCN(c3ccccc3F)CC2)c1)N1CCN(c2ccccc2F)CC1,inactive
4,COc1ccc(-c2noc(N3CCC(C(=O)Nc4cccc(OC)c4)CC3)n2)cc1,"inconclusive: 29.1 µM [falling, single point]"
5,CN(C)CCN1CC(O)=C(c2nc3ccccc3s2)C1=N,inactive
6,Cc1cccc(NC(=O)CSc2nccn2C)c1,"inconclusive: 2.91 µM [activator, partial curve]"
7,O=C1CCCC2=C1C(c1cccs1)Nc1ccc3ncccc3c12 (stereo unspecified),"inconclusive: 5.8 µM [falling, single point]"
8,O=C1CC(Sc2nnnn2C2CCCCC2)C(=O)N1c1ccccc1 (stereo unspecified),"inconclusive: 29.1 µM [falling, partial curve, poor fit]"
9,Nc1cccc2c1C(=O)N(C(=O)/C=C/c1cccc(Br)c1)C2=O,inactive
10,CN(C)S(=O)(=O)c1cc(NC(=O)CN2CCN(c3ccccc3)CC2)ccc1Cl,"inconclusive: 11.6 µM [falling, partial curve, poor fit]"
11,O=c1oc(-c2ccccc2F)nc2c1cnn2-c1ccccc1,"inconclusive: 32.6 µM [falling, single point]"
12,CC12Cc3ccc4ccccc4c3C=C1C[N+](C)(C)C2 (stereo unspecified),active: 1.3 µM
13,Cc1ccc(COc2ccccc2-c2cc(C(=O)N/N=C/c3cccnc3)[nH]n2)cc1,"inconclusive: 29.1 µM [falling, single point]"
14,CC1CCN(c2nc(CN3CCCCC3)nc3scc(-c4ccccc4)c23)CC1,"inconclusive: 29.1 µM [falling, single point]"
15,CCCCN(CC)C(=O)c1nn(C)c2c1CSc1ccccc1-2,inactive
16,COc1ccc(Oc2coc3cc(OC(=O)/C=C/c4ccc(F)cc4)ccc3c2=O)cc1,"inconclusive: 1.84 µM [falling, partial curve]"
17,COc1ccc([C@@H]2[C@@H]3C(=O)N(C(C)(C)C)C(=O)[C@@H]3[C@]3(C)C(=O)N(c4cccc(Br)c4)C(=O)N23)cc1,"inconclusive: 25.9 µM [falling, single point]"
18,O=C(CCl)Nc1ncc(S(=O)(=O)c2ccc([N+](=O)[O-])cc2)s1,"inconclusive: 2.06 µM [falling, full curve, poor fit]"
19,O=C(CSc1ccccc1C(=O)O)NC1CCCCCCC1,"inconclusive: 0.58 µM [activator, partial curve, poor fit]"
20,CC(C)NS(=O)(=O)c1ccc(OCC(=O)N2CCc3ccccc3C2)cc1,"inconclusive: 10.3 µM [falling, partial curve, poor fit]"
21,COc1ccc(-c2nc3ccccc3n2Cc2ccccc2)cc1COc1ccc(NC(C)=O)cc1,"inconclusive: 6.51 µM [activator, single point]"
22,O=c1cc(-c2ccccc2)cc(-c2ccccc2)n1O,"inconclusive: 20.6 µM [falling, partial curve, poor fit]"

row,SMILES,Potency
1,CC(C)NC(=O)c1sc2nc(-c3cccs3)cc(-c3cccs3)c2c1N,"inconclusive: 3.66 µM [falling, full curve, poor fit]"
2,C(=N\Nc1nc2ccccc2s1)/c1cccs1,"inconclusive: 2.59 µM [activator, partial curve, poor fit]"
3,CN1C2CCC1/C(=C\c1ccccc1)C(=O)/C2=C\c1ccccc1,active: 25.9 µM
4,CC1(C(=O)NCc2ccc(F)cc2)Oc2ccccc2NC1=O (stereo unspecified),"inconclusive: 32.6 µM [falling, single point]"
5,CC(C)(C)C(=O)Nc1ccc(C(=O)NCc2cccnc2)cc1,"inconclusive: 29.1 µM [activator, single point]"
6,COc1cccc(N=NC2C(=O)N(C(N)=S)N=C2C)c1 (stereo unspecified),"inconclusive: 0.82 µM [activator, full curve, poor fit]"
7,Fc1ccccc1/C=N/N1CCN(Cc2ccccc2Cl)CC1,"inconclusive: 29.1 µM [activator, single point]"
8,CC(=O)Nc1sc2c(c1C(N)=O)CCC2,"inconclusive: 13 µM [falling, partial curve, poor fit]"
9,CCOc1ccc(C(=O)Nc2ccc(-c3cc4ccccc4oc3=O)c(C)c2)cc1[N+](=O)[O-],"inconclusive: 2.91 µM [falling, full curve]"
10,CCOc1ccc(S(=O)(=O)N2c3ccccc3CC2C)cc1 (stereo unspecified),"inconclusive: 25.9 µM [falling, partial curve, poor fit]"
11,Cc1ccc(-c2nnc(SCC(=O)Nc3ccccc3F)o2)cc1,"inconclusive: 1.64 µM [activator, partial curve]"
12,CCN(CC)c1ccc(C(=O)NC(=S)N2CCN(Cc3ccc4c(c3)OCO4)CC2)cc1,"inconclusive: 29.1 µM [falling, single point]"
13,CCN(CC)C(=O)CSc1nnc([C@@H](NC(=O)OC(C)(C)C)C(C)C)o1,"inconclusive: 29.1 µM [falling, single point]"
14,COc1ccc(-c2cc(C(F)(F)F)n3nc(-c4ccccc4)cc3n2)cc1OC,inactive
15,CCOC(=O)Cc1csc(NC(=S)NC(=O)CC(C)C)n1,inactive
16,CCc1ccc(NC(=O)Cn2c(=O)n(CCC(C)C)c(=O)c3cccnc32)cc1,inactive
17,Cn1nnnc1Sc1ncnc2scc(-c3ccc(C(F)(F)F)cc3)c12,"inconclusive: 4.61 µM [activator, partial curve, poor fit]"
18,CC(=O)Nc1nonc1-c1nnc(SCc2ccccc2F)n1C,inactive
19,CN(CC(=O)Nc1cc(C(F)(F)F)ccc1-n1cncn1)Cc1ccccc1N1CCOCC1,inactive
20,CC(C)CN(C(=O)CCC(=O)OCc1ccc(Cl)cc1Cl)c1c(N)n(CC(C)C)c(=O)[nH]c1=O,"inconclusive: 29.1 µM [falling, single point]"
21,CCOC(=O)C1CCN(Cc2nc3ccccc3c(=O)n2-c2ccc(OCC)cc2)CC1,"inconclusive: 29.1 µM [falling, single point]"
22,CCc1ccccc1NS(=O)(=O)c1ccc2c(c1)CC(=O)N2,inactive

# Four of these compounds in another layout.
row	SMILES	Potency
1	O=C(NCCc1ccccc1Cl)C1CCN(c2nc3ccccc3nc2C(F)(F)F)CC1	inconclusive: 29.1 µM [activator, single point]
5	CN(C)CCN1CC(O)=C(c2nc3ccccc3s2)C1=N	inactive
7	Fc1ccccc1/C=N/N1CCN(Cc2ccccc2Cl)CC1	inconclusive: 29.1 µM [activator, single point]
13	CCN(CC)C(=O)CSc1nnc([C@@H](NC(=O)OC(C)(C)C)C(C)C)o1	inconclusive: 29.1 µM [falling, single point]

# (list continues)

row,SMILES,Potency
1,CCC(C(=O)Nc1cccc(-c2nc3cccnc3s2)c1C)c1ccccc1 (stereo unspecified),"inconclusive: 29.1 µM [activator, single point]"
2,CC(C)(C)C(=O)CSc1ccc(S(=O)(=O)N2CCN(Cc3ccccc3)CC2)cn1,inactive
3,C#CCN1C=CC(=O)[C@@H](OC(=O)Nc2ccc(Cl)cc2)[C@H]1c1ccccc1Br,"inconclusive: 29.1 µM [falling, single point]"
4,CSc1nc(Cl)cc(Nc2ccccc2N)n1,"inconclusive: 23.1 µM [activator, single point]"
5,CC1=C(C(=O)Nc2ccc(C)cc2C)C(c2cccs2)n2nc(SCc3cccc(C)c3)nc2N1 (stereo unspecified),"inconclusive: 18.4 µM [falling, single point]"
6,Cc1ccnc(NC(=O)Nc2ccc3c(c2)OCO3)c1,"inconclusive: 0.82 µM [activator, partial curve]"
7,O=C(Cn1nc(C(=O)O)c2ccccc2c1=O)Nc1cc(Cl)cc(Cl)c1,"inconclusive: 9.2 µM [falling, partial curve, poor fit]"
8,Cc1cc(C(=O)COC(=O)c2ccc([N+](=O)[O-])o2)c(C)n1CC1CCCO1 (stereo unspecified),"inconclusive: 5.8 µM [activator, full curve]"
9,Cc1ccc(NC(=O)c2ccc(C)c(S(=O)(=O)N3CCOCC3)c2)nc1,"inconclusive: 29.1 µM [activator, single point]"
10,COc1ccc(CCN(C)C(=O)Cc2ccc(-c3ccccc3)cc2)cc1OC,active: 5.8 µM
11,Cc1cc(C)c(C(=O)N2CCCC(CNS(=O)(=O)c3cccs3)C2)o1 (stereo unspecified),inactive
12,CCOC(=O)C1(CCOc2ccccc2)CCN(Cc2cc(OC)cc(OC)c2)CC1,"inconclusive: 29.1 µM [falling, single point]"
13,COc1ccc(N(CC(=O)N2CCN(c3ccc(Cl)cc3)CC2)S(=O)(=O)c2c(C)n[nH]c2C)cc1,"inconclusive: 11.6 µM [falling, partial curve]"
14,COC(=O)C(C)N1C(=O)S/C(=C\c2ccc(-c3ccc(C(=O)O)cc3C)o2)C1=O (stereo unspecified),"inconclusive: 8.2 µM [activator, partial curve]"
15,Cc1cccc2c1N(Cc1ccccc1OCCC(C)C)C(=O)C2=O,"inconclusive: 23.1 µM [falling, single point]"
16,CC(=O)c1ccc(NC(=O)c2cc(C)nc3c2c(C)nn3-c2ccc(C)cc2)cc1,"inconclusive: 16.4 µM [falling, partial curve, poor fit]"
17,COc1ccc(-n2c(=O)c3c(c4cc(OC)ccc4n3C)n(Cc3cccc(C)c3)c2=O)cc1,"inconclusive: 0.58 µM [activator, full curve, poor fit]"
18,O=C(Nc1cccc2nsnc12)c1ccc(F)cc1,"inconclusive: 4.11 µM [activator, full curve, poor fit]"
19,Cn1cnnc1SCc1ccc(C(=O)n2ncc(C#N)c2N)cc1,"inconclusive: 29.1 µM [falling, single point]"
20,COc1ccc(NC(=O)c2cn(-c3ccccc3)nc2-c2cc3ccccc3o2)cc1,inactive
21,CCCCOC(=O)Nc1ccc(C(N)=O)cc1,"inconclusive: 16.4 µM [activator, single point]"
22,COc1ccc(NC(=O)CN(C)C(=O)c2cccc(NS(=O)(=O)c3ccc(Br)cc3)c2)cc1,"inconclusive: 2.91 µM [activator, single point]"
